Laboratory results reported in publication PMC11024185.
These are yes or no findings as the source states them, for the method shown. In cells and extracts the contact can be indirect. These calls come from enrichment with a bait or labelling near it, and not all partners need be listed. For some of these results: Tags and fused reporters may be left off the sequences shown.

The chains behind the UniProt entries cited, without tags or fusion partners.
UniProt Q06205: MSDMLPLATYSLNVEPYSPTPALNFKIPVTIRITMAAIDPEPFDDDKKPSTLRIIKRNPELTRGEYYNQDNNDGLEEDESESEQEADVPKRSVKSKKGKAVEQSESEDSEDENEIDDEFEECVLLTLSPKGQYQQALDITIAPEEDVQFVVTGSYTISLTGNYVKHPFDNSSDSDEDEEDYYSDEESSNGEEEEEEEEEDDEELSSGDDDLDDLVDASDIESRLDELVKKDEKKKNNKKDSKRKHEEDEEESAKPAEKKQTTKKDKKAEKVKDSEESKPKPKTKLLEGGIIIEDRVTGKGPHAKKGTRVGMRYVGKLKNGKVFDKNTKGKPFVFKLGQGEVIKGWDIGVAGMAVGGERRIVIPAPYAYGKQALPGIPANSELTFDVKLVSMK
UniProt Q03532: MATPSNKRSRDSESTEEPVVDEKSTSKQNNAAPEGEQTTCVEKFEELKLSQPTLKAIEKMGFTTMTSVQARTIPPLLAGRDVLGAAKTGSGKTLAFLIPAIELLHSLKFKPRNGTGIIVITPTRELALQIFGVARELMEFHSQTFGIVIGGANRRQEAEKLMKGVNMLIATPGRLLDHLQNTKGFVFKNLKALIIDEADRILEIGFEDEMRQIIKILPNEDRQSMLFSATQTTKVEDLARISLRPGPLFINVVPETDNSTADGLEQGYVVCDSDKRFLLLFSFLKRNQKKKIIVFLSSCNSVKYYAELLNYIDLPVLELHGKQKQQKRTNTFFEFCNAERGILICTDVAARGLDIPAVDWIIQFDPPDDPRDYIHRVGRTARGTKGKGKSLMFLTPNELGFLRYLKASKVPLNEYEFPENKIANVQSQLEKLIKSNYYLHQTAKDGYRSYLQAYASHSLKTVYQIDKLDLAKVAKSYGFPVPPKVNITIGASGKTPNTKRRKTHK
UniProt P14126: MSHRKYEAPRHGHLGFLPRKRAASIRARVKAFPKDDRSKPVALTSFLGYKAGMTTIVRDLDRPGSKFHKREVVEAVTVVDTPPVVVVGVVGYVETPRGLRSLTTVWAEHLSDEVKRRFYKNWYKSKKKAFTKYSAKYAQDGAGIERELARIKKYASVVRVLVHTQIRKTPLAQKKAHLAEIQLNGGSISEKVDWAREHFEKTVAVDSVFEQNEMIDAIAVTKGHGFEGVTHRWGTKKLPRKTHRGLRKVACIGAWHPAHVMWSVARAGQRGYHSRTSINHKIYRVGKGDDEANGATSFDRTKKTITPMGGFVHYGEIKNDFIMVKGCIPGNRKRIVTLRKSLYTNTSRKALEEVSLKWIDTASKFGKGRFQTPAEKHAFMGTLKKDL
UniProt P40007: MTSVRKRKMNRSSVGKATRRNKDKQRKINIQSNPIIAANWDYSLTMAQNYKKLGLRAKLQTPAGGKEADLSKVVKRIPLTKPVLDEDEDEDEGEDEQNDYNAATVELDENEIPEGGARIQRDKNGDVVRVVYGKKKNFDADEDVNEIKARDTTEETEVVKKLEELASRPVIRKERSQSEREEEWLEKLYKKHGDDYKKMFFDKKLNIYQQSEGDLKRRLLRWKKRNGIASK

Experiments:
[1] = target: T1, Ssf1-3xFLAG-3C-2xProteinA (S. cerevisiae) (UniProt P38789); experiment: affinity purification with mass spectrometry; purification of pre-60S intermediates from a drs1 R569Q strain by tags on Drs1 R569Q (3x-Strep) and Ssf1 (2x-ProtA); Coomassie-stained 4-20% SDS-PAGE
T1 sequence: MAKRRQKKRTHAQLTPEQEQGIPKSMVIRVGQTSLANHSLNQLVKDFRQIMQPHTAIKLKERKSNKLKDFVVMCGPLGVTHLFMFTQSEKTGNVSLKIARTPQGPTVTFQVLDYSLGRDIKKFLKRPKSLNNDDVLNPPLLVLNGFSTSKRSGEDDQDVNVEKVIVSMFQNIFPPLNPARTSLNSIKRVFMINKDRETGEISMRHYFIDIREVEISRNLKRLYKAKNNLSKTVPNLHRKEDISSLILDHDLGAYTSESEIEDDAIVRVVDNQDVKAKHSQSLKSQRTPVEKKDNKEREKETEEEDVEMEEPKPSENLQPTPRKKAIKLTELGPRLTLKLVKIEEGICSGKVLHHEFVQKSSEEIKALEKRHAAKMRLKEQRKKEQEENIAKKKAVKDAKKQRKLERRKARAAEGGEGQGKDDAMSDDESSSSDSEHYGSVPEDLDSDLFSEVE

[2] = target: T1, Ssf1-3xFLAG-3C-2xProteinA (S. cerevisiae); experiment: affinity purification with mass spectrometry; split-tag purification of pre-60S particles from steady state DBP10 yeast: IgG Sepharose on Ssf1-2xProteinA, 3C cleavage, then Strep-Tactin on 2xStrep-Dbp10, desthiobiotin elution; buffers with 50 µM ADP-BeF3; Coomassie-stained 4-20% SDS-PAGE, bands named by molecular weight, ambiguous bands by mass spectrometry
[3] = target: T2, Dbp10 (2xStrep-bdNEDD8-DBP10) (S. cerevisiae) (UniProt Q12389); experiment: as above
T2 sequence: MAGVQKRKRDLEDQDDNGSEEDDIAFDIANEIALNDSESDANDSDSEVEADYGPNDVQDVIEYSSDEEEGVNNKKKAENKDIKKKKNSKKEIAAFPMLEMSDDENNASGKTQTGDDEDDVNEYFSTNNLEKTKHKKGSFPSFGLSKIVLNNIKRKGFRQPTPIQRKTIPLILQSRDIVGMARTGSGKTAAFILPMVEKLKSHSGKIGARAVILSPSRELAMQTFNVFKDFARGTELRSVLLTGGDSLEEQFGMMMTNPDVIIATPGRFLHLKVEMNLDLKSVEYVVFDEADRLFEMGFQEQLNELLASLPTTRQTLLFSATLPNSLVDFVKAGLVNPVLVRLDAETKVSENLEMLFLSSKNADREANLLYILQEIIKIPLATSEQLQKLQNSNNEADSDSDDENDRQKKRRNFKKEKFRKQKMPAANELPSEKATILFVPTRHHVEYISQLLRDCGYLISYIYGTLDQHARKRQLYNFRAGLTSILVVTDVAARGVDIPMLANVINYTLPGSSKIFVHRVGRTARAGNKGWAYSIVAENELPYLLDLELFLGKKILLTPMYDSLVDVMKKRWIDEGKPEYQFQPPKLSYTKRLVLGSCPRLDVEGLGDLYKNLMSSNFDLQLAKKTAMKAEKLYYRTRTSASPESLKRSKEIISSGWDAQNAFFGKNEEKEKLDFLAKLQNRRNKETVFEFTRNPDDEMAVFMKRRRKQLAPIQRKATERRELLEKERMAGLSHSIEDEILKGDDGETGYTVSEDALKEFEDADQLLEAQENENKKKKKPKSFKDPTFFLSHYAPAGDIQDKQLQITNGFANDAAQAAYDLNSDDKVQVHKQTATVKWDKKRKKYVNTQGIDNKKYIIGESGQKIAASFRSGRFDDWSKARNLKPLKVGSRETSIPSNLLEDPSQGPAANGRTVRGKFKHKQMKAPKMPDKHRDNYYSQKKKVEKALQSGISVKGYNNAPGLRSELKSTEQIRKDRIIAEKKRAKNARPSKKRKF

[4] = target: T2, Dbp10 (2xStrep-bdNEDD8-DBP10) (S. cerevisiae); experiment: affinity purification with mass spectrometry; split-tag purification of pre-60S particles from SPB4-AID yeast without and with auxin (0.5 mM IAA, 45 min): IgG Sepharose on Noc2-2xProteinA, 3C cleavage, then Strep-Tactin on 2xStrep-Dbp10; buffers with 50 µM ADP-BeF3; Coomassie-stained 4-20% SDS-PAGE, bands named by molecular weight, ambiguous bands by mass spectrometry; auxin gave ~10-fold enrichment of the particle
[5] = target: T3, Noc2-3xFLAG-3C-2xProteinA (S. cerevisiae) (UniProt P39744); experiment: as above
T3 sequence: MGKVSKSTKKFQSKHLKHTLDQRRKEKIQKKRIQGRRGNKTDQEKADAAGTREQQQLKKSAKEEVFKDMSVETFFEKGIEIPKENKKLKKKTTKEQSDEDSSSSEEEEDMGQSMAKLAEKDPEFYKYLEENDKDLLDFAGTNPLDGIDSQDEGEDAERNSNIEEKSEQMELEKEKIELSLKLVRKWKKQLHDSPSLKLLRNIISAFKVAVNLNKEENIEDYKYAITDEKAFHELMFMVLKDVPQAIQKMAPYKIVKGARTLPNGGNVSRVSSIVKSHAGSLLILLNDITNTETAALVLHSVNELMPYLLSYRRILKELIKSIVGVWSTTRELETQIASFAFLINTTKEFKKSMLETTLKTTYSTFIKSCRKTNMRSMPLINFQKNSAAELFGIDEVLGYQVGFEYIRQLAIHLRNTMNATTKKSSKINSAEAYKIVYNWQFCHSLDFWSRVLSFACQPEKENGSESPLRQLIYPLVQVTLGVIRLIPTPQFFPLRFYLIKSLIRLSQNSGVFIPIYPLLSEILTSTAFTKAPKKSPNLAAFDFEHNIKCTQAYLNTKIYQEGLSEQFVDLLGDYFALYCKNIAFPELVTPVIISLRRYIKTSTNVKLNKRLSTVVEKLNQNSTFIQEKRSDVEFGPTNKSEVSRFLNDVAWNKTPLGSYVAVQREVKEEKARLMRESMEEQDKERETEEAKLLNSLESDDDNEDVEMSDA

Measured: binding

uL4 (S. cerevisiae (endogenous in yeast))
binds: [1] | [2] | [3] | [4]

Fpr4 (from UniProt Q06205 1-392)
binds: [1] | [2] | [3] | [5] | [4]

Has1 (from UniProt Q03532 1-505) (enzyme)
binds: [1] | [2] | [3] | [5] | [4]

uL3 (from UniProt P14126 1-387)
binds: [1] | [2] | [3] | [5] | [4]

Nop16 (from UniProt P40007 1-231)
binds: [1] | [2] | [3] | [5] | [4]

B1: Rpf1 (protein, UniProt P38805 1-295)
chain: MALGNEINITNKLKRQEIFADIKHEKNKERHTMRRKRAKEERENPELREQRLKENVTQTIENTRVYDETINKEVEGDEDDLMRYFNSNSNEPPKIFLTTNVNAKKSAYEFANILIEILPNVTFVKRKFGYKLKEISDICIKRNFTDIVIINEDKKKVTGLTFIHLPEGPTFYFKLSSFVEVKKIVGHGRPTSHIPELILNNFQTRLGQTVGRLFQSILPQNPDIEGRQVITLHNQRDYIFFRRHRYVFKDNERVGLQELGPQFTLKLKRLQRGIKEETEWEHKPEMDKEKKKFYL
binds: [1] | [2] | [3]

B2: Ytm1 (protein, UniProt Q12024 1-460)
chain: MTEDKSQVKIRFFTREKDELLHVQDTPMYAPISLKRYGLSEIVNHLLGSEKPVPFDFLIEGELLRTSLHDYLTKKGLSSEASLNVEYTRAILPPSYLNSFSNEDWVSSLDVGDGSKHIISGSYDGIVRTWDLSGNVQKQYSGHSGPIRAVKYISNTRLVSAGNDRTLRLWKTKNDDLKLTSQQQAQEDDDDEVNIEDGKTLAILEGHKAPVVSIDVSDNSRILSASYDNSIGFWSTIYKEMTVVDPLEDINNPNNKISTAARKRRKLTMKDGTIRRRAPLSLLESHTAPVEQVIFDSTDNTVGYSVSQDHTIKTWDLVTARCIDTRTTSYSLLSIAQLSTLNLLACGSSARHITLHDPRVGASSKVTQQQLIGHKNFVSSLDTCPENEYILCSGSHDGTVKVWDVRSTSPMYTITREDKSVQKGVNDKVFAVKWAEKVGIISAGQDKKIQINKGDNIFKN
binds: [1] | [2] | [3] | [5] | [4]

B3: Mak16 (protein, UniProt P10962 1-306)
chain: MSDEIVWQVINQSFCSHRIKAPNGQNFCRNEYNVTGLCTRQSCPLANSKYATVKCDNGKLYLYMKTPERAHTPAKLWERIKLSKNYTKALQQIDEHLLHWSKFFRHKCKQRFTKLTQVMITERRLALREEERHYVGVAPKVKRREQNRERKALVAAKIEKAIEKELMDRLKSGAYGDKPLNVDEKVWKKIMGQMEEENSQDEEEDWDEEEESDDGEVEYVADDGEGEYVDVDDLEKWLADSDREASSASESESDSESESDSDSDEENKNSAKRRKKGTSAKTKRPKVEIEYEEEHEVQNAEQEVAQ
binds: [1] | [2] | [3]

B4: Rpf2 (protein, UniProt P36160 1-344)
chain: MIRTVKPKNARAKRALVKREAKLVENVKQALFIPGQSCNKNLHDIMVDLSALKKPDMKRFNRKNDIHPFEDMSPLEFFSEKNDCSLMVLMTSSKKRKNNMTFIRTFGYKIYDMIELMVADNFKLLSDFKKLTFTVGLKPMFTFQGAAFDTHPVYKQIKSLFLDFFRGESTDLQDVAGLQHVISMTIQGDFQDGEPLPNVLFRVYKLKSYKSDQGGKRLPRIELVEIGPRLDFKIGRIHTPSPDMVTEAHKKPKQLEMKTKKNVELDIMGDKLGRIHMGKQDLGKLQTRKMKGLKSKFDQGTEEGDGEVDEDYEDEASYSDDGQEYEEEFVSATDIEPSAKRQKK
binds: [1] | [2] | [3] | [5] | [4]

B5: Rrp1 (protein, UniProt P35178 1-278)
chain: METSNFVKQLSSNNRKTRVNALEALKKYLTAKQFKENKQIEFNKLWKGLYYAMWFSDRPRPQQRLANELGELHGLYFDPKDNSTADELTTNDKAFIKFSRGFWKVMCFEWFNIDRYRLDKYLLLIRRVLFSQLKYLQSRNWDKKLVDEYIKKVLRWLPLSGSPKVYTGIPIHIVDILLDEWERLLKDGDEDDEDEENKEEEMRKIAESAKKTPLADVIAIFQDIVADYNNSKVLREKIKEDLFSDTRLVSWDILEGETQHNDSSNESEEEEEEEWKGF
binds: [1] | [2] | [3]
